From US10213527B2, “Functionalized titanium binding peptides and implants coated with same” (Ben-Gurion University of the Negev Research and Development …, priority 2012, dated 2019)
“And” between values parts separate entries of the source, which are not always exact repeats. Equal values may be shown once. Non-standard residues stand in square brackets, D forms with d. Residues, ends and D or L forms follow the SMILES beside them. pS = N[C@@H](COP(=O)(O)O)C(=O)O

Tests used:
[1] = ICP-MS of calcium and phosphate in peptide coated samples soaked in SBF for 11 days; settings: 11 days in SBF
Experimental: FIG. 9. Calcium and phosphate ion concentration detected in peptide coated samples that were soaked in SBF for 11 days. The samples were withdrawn from SBF after 11 days and immediately washed with ethanol to remove residual solution. The dried samples were then soaked in 0.1 M HCl to dissolve all the mineral and samples of the acidic solution were measured by ICP for calcium, phosphate and potassium ions (the latter were in negligible concentrations). […] Noteworthy, in these experiments the titanium oxide surface itself induces mineralization too. […] In addition, phosphate ions from the solution may coordinatively bind to the titanium and induce mineralization. Nevertheless, the peptide coating is expected to improve the binding strength between the mineralized layer and the titanium substrate.
(§1) Revised simulated body fluids (SBF) solution was prepared according to Oyane et. al., with the following ion concentrations: Na^+ 142 mM, K^+ 5 mM, Mg^2+1.5 mM, Ca^2+ 2.5 mM, Cl^− 103 mM, HCO3^− 27 mM, HPO4^2− 1 mM SO4^2− 0.5 mM.
Inductively Coupled Plasma Mass Spectrometry (ICP-MS) Results
The results are illustrated in FIG. 9 and Table 4 herein below.

[2] = XPS analysis of peptide on TiO2 slides (early stages of mineralization, 40 min in SBF)
Experimental: as §1
TiO2 Surface Preparation: as described in Catherine D. Reyes, Timothy A. Petrie, Kellie L. Burns, Zvi Schwarts and Andres J. Garcia. (2007) Biomaterials 28(21): 3228-323.
Surfaces were prepared by Thermal Evaporation—microscope slides were coated with pure 99.9% Ti particles to 40 nm thickness. Oxide layer was promoted by heating the slides for 8 hours on 180° C.
XPS Analysis of Peptide on TiO2 (Early Stages of Mineralization):
Shown are the XPS atomic ratios of TiO2, peptide diluted in TBS bonded on TiO2, peptide diluted in BCS bonded on TiO2 and all the slides after 40 minutes in SBF1.5 (c).

[3] = Adsorption isotherm onto TiO2 particles, Sips equation fitting; type: binding; settings: 10 mM TBS pH 7.4; for α, Sips constant of binding energy distribution (row 'A' of Table 5): Sips fit; for nominal area each peptide occupies (inverse of Smax): on TiO2 particles
Experimental: The adsorption of all three peptides to TiO2 particles were measured with peptides solution in a range of concentrations from 0.002 to 0.524 mM in 10 mM TBS solution. TiO2 particles were suspended in TBS 10 mM, pH 7.4, to a final concentration of 1.8 mg/ml. To each test tube containing 0.5 ml of peptide at different concentrations, 0.5 ml of TiO2 particles solution was added. The samples were continuously mixed with a tube rotator for 1 h at room temperature. To precipitate the TiO2 particles, the test tubes were centrifuged at 5000 rpm for 3 minutes and the absorption of the supernatant was measured at 280 nm using a microplate-reader (BioTek instruments). Peptide concentration was determined based on calibration curve of each peptide prepared in TBS solution. In order to describe the adsorption of molecules on TiO2 particles surface the sips equation, also known as the Langmuir-Freundlich equation (1), was used:
[formula] where S is the amount of adsorbed molecules (mol m^−2), Smax is the maximum amount of molecules adsorbed (mol m^−2), C is their concentration is solution at equilibrium (mM), k is the association coefficient (M^−1) and α is the constant representing this distribution.^30
Peptide adsorption and desorption conditions were characterized by HPLC. A column was packed with micrometer size particles of the TiO2 anatase phase (see Materials and Methods). Tris buffer saline (TBS), pH 7.4, served as a loading buffer. […] The salt ions expected to have an electrostatic repulsion screening effect and make negatively charge TiO2 surface more accessible for the negatively charged peptides to generate coordinative bonds that require short range interaction distance^42. The elutions used conditions were consecutive linear gradients of sodium bicarbonate (0-200 mM, pH7.4) and NaOH (0-0.1M). The bicarbonate ions may bind by coordinative bonds to the oxide surface, similar to the way phosphate ions can be bound to the surface. Yet the binding strength of the bicarbonate ions to TiO2 is weaker than that of phosphate ions^43. […] The tailing peaks shape of pSer and β-cpSer together with the small eluted volume during the void volume of the column probably indicates on impurity of the peptides' powders or secondary interactions of the peptides with the column. Those secondary interactions may occur as a result of different orientation of the phosphate groups at the TiO2 binding surface. […] Therefore, adsorption isotherm to micro-size titanium oxide particles was performed in order to characterize the extent of interactions between the peptides and the oxide (FIGS. 15A-C). The data was fitted to Sips equation (eq.1). Sips isotherms is a combined form of Langmuir and Freundlich expressions and it relies on the assumption that there are a distribution of binding energies of the sites of a surface, this distribution is represented by α. When α→1 Sips equation reduces to Langmuir equation and represents binding of a monolayer with homogenous binding energy and small α values together with low concentrations reduces Sips equation to Freundlich equation with a potential to saturation at high concentrations (unlike the original Freundlich equation). Therefore, fitting peptides adsorption isotherm data to Sips equation give us an insight into their binding energy distributions. Fitting the collected data to Sips equation (continuous line at FIGS. 15A-C and Table 5 herein below) yields α=0.8 for pSer peptide and α=0.4 for control peptides, cpSer and β-cpSer. Table 5 contains the Sips equation values for the three peptides and the standard deviation values (SD).

[4] = peptide in BCS bonded on TiO2, after 40 min in SBF
[5] = peptide in TBS bonded on TiO2, after 40 min in SBF

Compound: O=C(O)CC[C@H](NC(=O)[C@H](CCC(=O)O)NC(=O)[C@H](CCC(=O)O)NC(=O)[C@H](CCC(=O)O)NC(=O)[C@H](CCC(=O)O)NC(=O)CNC(=O)CNC(=O)CNC(=O)[C@H](Cc1c[nH]c2ccccc12)NC(=O)[C@H](COP(=O)(O)O)NC(=O)[C@H](Cc1c[nH]c2ccccc12)NC(=O)[C@H](COP(=O)(O)O)NC(=O)[C@@H]1CCCN1)C(=O)O [PpSer, Pro-pSer-Trp-pSer-Trp-(Gly)3-(Glu)5] (H-P[pS]W[pS]WGGGEEEEE-OH; N-terminus and C-terminus assumed)
- amounts of Ca,P by ICP ([1]; surface + peptide TBS compared to surface + peptide BCS): lower amounts of Ca,P
- Ca/P ratio by ICP ([1]; surface + peptide coated in CBS): 1.46
- Ca/P ratio by ICP ([1]; surface + peptide coated in TBS): 1.38
- XPS atomic ratio C/P [2, 4]: 132.06
- XPS atomic ratio Ca/P [2, 4]: 1.80
- XPS atomic ratio C/P ([2]; peptide in BCS bonded on TiO2 slides, before SBF): 181.28
- XPS atomic ratio C/P [2, 5]: 36.84
- XPS atomic ratio Ca/P [2, 5]: 0.835
- XPS atomic ratio C/P ([2]; peptide in TBS bonded on TiO2 slides, before SBF): 29.95

Compound: Pro-Ser(phos)-Phe-Ser(phos)-Trp-(Gly)3-(Glu)5 (PSFSWGGGEEEEE; phosphoserines; (2)..(2) Phosphorylated residue; (4)..(4) Phosphorylated residue) [pSer]
- α, Sips constant of binding energy distribution (row 'A' of Table 5) [3]: 0.8 and 0.79
- nominal area each peptide occupies (inverse of Smax) [3]: ~498 A^2 molec^−1

Compound: Pro-Ser(phos)-Ser(phos)-Phe-Trp-(Gly)3 (PSSFWGGG; phosphoserines; (2)..(3) Phosphorylated residue) [β-cpSer]
- α, Sips constant of binding energy distribution (row 'A' of Table 5) [3]: 0.4 and 0.42
- nominal area each peptide occupies (inverse of Smax) [3]: ~221 A^2 molec^−1

Compound: Pro-pSer-Phe-pSer-Trp-(Gly)3 (PSFSWGGG; phosphoserines; (2)..(2) Phosphorylated residue; (4)..(4) Phosphorylated residue) [cpSer, control peptide lacking the stretch of the Glu residues]
- α, Sips constant of binding energy distribution (row 'A' of Table 5) [3]: 0.4 and 0.41
- nominal area each peptide occupies (inverse of Smax) [3]: ~422 A^2 molec^−1
